Assay results as given in patent US8518876B2, “Composition for long-acting peptide analogs” (Pharmaln Corporation, priority 2007, dated 2013).
Some results were stated once for a whole list of compounds, not compound by compound. Where a SMILES comes first, the peptide text is derived from it. Bridges are numbered along the chain shown (N, C = ends). [ ]: non-standard residue; d: D form. The star is where a group is joined. ξ: configuration not given here. Lauroyl = CCCCCCCCCCCC(=O)*; Octanoyl = CCCCCCCC(=O)*; ξLac = CC(O)C(=O)O

Tested on: human umbilical chord artery endothelial cells (HUAEC)
Assay: Ca-influx after vasopressin analog stimulation of HUAEC, samples pre-incubated in human serum
Type: cell-based
Conditions: 37° C.; for time the analog remains active in serum: FIGS. 14-16
From the text: Ca-influx after vasopressin analog stimulation of human umbilical chord artery endothelial cells (HUAEC) was used to test the biological activity of the various vasopressin analogs. The material used were: 75 cm^2 tissue culture flasks, BD Bioscience, Bedford Mass. (catalogue number 137787) with 0.2 μm vented blue plug seal caps (catalogue number 353136); human umbilical artery endothelial cells (HUAEC), Lonza, Walkersville, Md. (catalogue number CC-2520); EGM-2 fully supplement medium, Lonza, Walkersville, Md. (catalogue number CC-3162); Fura-2 AM, Invitrogen/Molecular Probes, Carlsbad, Calif. (catalogue number F-1221) (Fura-2 AM is a high affinity, intracellular calcium indicator that is ratiometric and UV light-excitable; the acetoxymethyl (AM) ester form is useful for noninvasive intracellular loading as it is cell permeable. Once inside the cell the ester is clipped which renders the Fura-2 molecule cell impermeable and therefore trapped inside.); terlipressin derivatives custom made by Anaspec, San Jose Calif., according to inventors specifications; pooled human serum, Sigma, St. Louis, Mo. (catalogue number H4522); phosphate buffered saline (PBS), Fisher Scientific, Fair Lawn, N.J. (catalogue number BP399-500); trypsin-EDTA solution, 0.25%, Invitrogen/Gibco, Carlsbad, Calif. (catalogue number 25200-072); heat inactivated fetal bovine serum (FBS), Invitrogen/Gibco, Carlsbad, Calif. (catalogue number 10438-026); black polystyrene 96 well flat-bottom assay plates, Corning Inc., Corning, N.Y. (catalogue number 3916); Chameleon plate multilabel detection reader, Hidex, Turku, Finland, distributed by Bioscan, Washington, D.C.; dimethyl sulfoxide (DMSO), Fisher Scientific, Fair Lawn, N.J. (catalogue number D-136-1).
The methods used for tissue or cell culture are as follows: a vial of HUAEC (>0.5×10^6 cells) was thawed and seeded in two 75 cm^2 flasks with 15 ml EGM-2 medium each. Cells were grown over night and medium was changed. Media in the flasks were changed on a Monday, Wednesday, Friday schedule. Cells were split at approximately 80% confluency (using trypsin). Media were removed and the flasks were washed with 10 ml 1×PBS. The PBS was removed, 1.5 ml trypsin-EDTA solution was added and incubated for 5 min at 37° C. Three ml of FBS added and the cells were counted. The cells were centrifuged at 200×G for 5 min, resuspended in EGM-2 medium and distributed into new 75 cm2 flasks @ 3000-5000 cells per cm2.
To prepare for the Ca2+-influx assay, cells were distributed into one black 96 well plate @ 10^5 cells/well. Cells were allowed to adhere overnight and the medium was then removed. Fifty μg Fura-2 was dissolved in 50 μl DMSO and added to 10 ml PBS/2% FBS. The cells were stained with 20 μl of 5 μg/ml Fura-2 in PBS/2% FBS for 2 h, then 180 μl EGM-2 medium supplemented with CaCl2 and glucose was added (10 mM CaCl2 and 11.1 mM glucose final concentrations).
To prepare analogs for testing, 50 uM terlipressin (or derivative) stock solution in DMSO was prepared. […] (placed on ice after incubation).
To measure Ca-influx, Fura-2 fluorescence was measured for 4 repetitions per well at 340 nm ex/510 nm em and 420 nm ex/510 nm em (4 measurement before and 16 after injection of drug. At t=12 sec, 20 μl of terlipressin or derivative was injected as a 500 nM solution (or serum) for a final concentration of 50 nM per well. Fura-2 fluorescence was measured for […] per well at 340 nm ex/510 nm em and 420 nm ex/510 nm em (4 measurements before and 16 after injection of drug). The controls included injected human serum alone, and terlipressin or derivative dissolved in PBS as […]. All measurements were done in hexuplicate.
Data analysis was done using Graphpad Prism version 5.0 software (Graphpad software Inc, San Diego, Calif.). […]

Structure (SMILES) | time activity is maintained / protected from degradation in serum | time the analog remains active in serum
CCCCCCCCCCCC(=O)OC(C)C(=O)NCC(=O)NCC(=O)NCC(=O)N[C@H]1CSSC[C@@H](C(=O)N2CCC[C@H]2C(=O)N[C@@H](CCCCN)C(=O)NCC(N)=O)NC(=O)[C@H](CC(N)=O)NC(=O)[C@H](CCC(N)=O)NC(=O)[C@H](Cc2ccccc2)NC(=O)[C@H](Cc2ccc(O)cc2)NC1=O (stereo partly drawn) [C12TerE, CH3(CH2)10CO—OHC(CH3)CO-Gly-Gly-Gly-Cys-Tyr-Phe-Gln-Asn-Cys-Pro-Lys-Gly-NH2] (Lauroyl-[ξLac]GGGCYFQNCPKG-NH2; disulfide 5-10) | up to 4 h | up to 4 hr
CCCCCCCCCCCC(=O)NCC(=O)NCC(=O)NCC(=O)N[C@H]1CSSC[C@@H](C(=O)N2CCC[C@H]2C(=O)N[C@@H](CCCCN)C(=O)NCC(N)=O)NC(=O)[C@H](CC(N)=O)NC(=O)[C@H](CCC(N)=O)NC(=O)[C@H](Cc2ccccc2)NC(=O)[C@H](Cc2ccc(O)cc2)NC1=O [C12TerA, CH3(CH2)10CO-Gly-Gly-Gly-Cys-Tyr-Phe-Gln-Asn-Cys-Pro-Lys-Gly-NH2] (Lauroyl-GGGCYFQNCPKG-NH2; disulfide 4-9) | up to 4 h | up to 4 hr
CCCCCCCC(=O)NCC(=O)NCC(=O)NCC(=O)N[C@H]1CSSC[C@@H](C(=O)N2CCC[C@H]2C(=O)N[C@@H](CCCCN)C(=O)NCC(N)=O)NC(=O)[C@H](CC(N)=O)NC(=O)[C@H](CCC(N)=O)NC(=O)[C@H](Cc2ccccc2)NC(=O)[C@H](Cc2ccc(O)cc2)NC1=O [C8TerA, CH3(CH2)6CO-Gly-Gly-Gly-Cys-Tyr-Phe-Gln-Asn-Cys-Pro-Lys-Gly-NH2] (Octanoyl-GGGCYFQNCPKG-NH2; disulfide 4-9) | up to 4 h | up to 4 hr
